Data as given in PubChem BioAssay AID1671195 (Yale University, 2021).
Here is an unselected part of about 22,000 reagents tested. About 1,510 of them (6.9%) count as active. 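Active includes knockdowns raising or lowering LDL uptake; positive z-scores mean more uptake, negative mean less.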

Aim: 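Genes whose knockdown alters LDL uptake in liver cancer cells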 (primary screen)
Cells: human Huh7 hepatoma cells
Knock-down reagent: siRNA pool against human genes, 18 nM
Duration: about 2 to 2.5 days of knockdown, then 8 h LDL uptake
Challenge: DiI-labelled LDL at 30 µg/ml for 8 h, in lipoprotein-deficient serum medium
Measured: 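Fluorescent LDL signal imaged in cells, scaled to the plate median, robust z-score for each replicate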
Direction: robust z-score: higher = more LDL uptake after knockdown
Call rule: 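Active when two or more replicates show a robust z-score above 2 or below -2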

no.	gene knocked down	robust z-score, replicate 1	robust z-score, replicate 2	robust z-score, replicate 3	outcome
1	ZMYM4 (zinc finger MYM-type containing 4)	1.33	0.885	0.253	inactive
2	ZC3H12D (zinc finger CCCH-type containing 12D)	-0.816	-0.814	-0.896	inactive
3	LOC347421 (retired record)	-0.514	-0.463	0.0895	inactive
4	FBXO15 (F-box protein 15)	0.282	-0.971	-1.45	inactive
5	POLA1 (DNA polymerase alpha 1, catalytic subunit)	-1.6	-2.17	-1.64	inactive
6	FBXL3 (F-box and leucine rich repeat protein 3)	0.504	-0.722	-1.65	inactive
7	CAPZA1 (capping actin protein of muscle Z-line subunit alpha 1)	0.83	2.25	0.483	inactive
8	LOC401132 (retired record)	0.768	0.696	0.733	inactive
9	CLEC12B (C-type lectin domain family 12 member B)	1.09	1.26	1.5	inactive
10	LNP1 (leukemia NUP98 fusion partner 1)	0.405	0.0554	0.449	inactive
11	LYAR (Ly1 antibody reactive)	2.32	-0.745	1.09	inactive
12	TP53RK (TP53 regulating kinase)	0.501	1.58	0.302	inactive
13	SLC3A2	-1.03	-1	-0.455	inactive
14	LOC102725228	4.08	3.22	3.54	active
15	OR8B8 (olfactory receptor family 8 subfamily B member 8)	-1.65	-1.3	-1.25	inactive
16	MIR137HG (MIR137 host gene)	0.475	0.417	0.479	inactive
17	SRSF8 (serine and arginine rich splicing factor 8)	0.698	1.18	0.594	inactive
18	ESAM (endothelial cell adhesion molecule)	-1.21	-0.827	-0.282	inactive
19	CNR1 (cannabinoid receptor 1)	1.72	2.62	2.6	active
20	LOC400785 (retired record)	-1.46	-1.43	-0.938	inactive
21	LOC339583 (retired record)	2.74	2.78	3.12	active
22	PSMC1P4 (proteasome 26S subunit, ATPase 1 pseudogene 4)	-0.144	-1.04	-0.435	inactive
23	CD164 (CD164 molecule)	0.576	0.543	0.057	inactive
24	DESI1 (desumoylating isopeptidase 1)	2	0.277	1.34	inactive
25	LOC440000 (retired record)	-0.104	-0.4	-0.804	inactive
26	FOXE1 (forkhead box E1)	3.35	2.52	3.24	active
27	NME6 (NME/NM23 nucleoside diphosphate kinase 6)	0.0691	1.04	0.092	inactive
28	GUCY2D (guanylate cyclase 2D, retinal)	-1.93	-0.593	-1.66	inactive
29	LRRC75B (leucine rich repeat containing 75B)	-0.423	-0.739	-0.64	inactive
30	SLFN11 (schlafen family member 11)	-0.275	-0.39	-0.792	inactive
31	P4HTM (prolyl 4-hydroxylase, transmembrane)	-1.55	-1.41	-1.96	inactive
32	CD9 (CD9 molecule)	1.36	1.02	0.489	inactive
33	ZNF165 (zinc finger protein 165)	0.208	-0.0296	0.0499	inactive
34	CENPF (centromere protein F)	-0.735	-1.68	-1.5	inactive
35	ENTPD3 (ectonucleoside triphosphate diphosphohydrolase 3)	-0.00825	0.184	-0.898	inactive
36	ACTR2 (actin related protein 2)	-0.611	-0.814	0.19	inactive
37	CDH11 (cadherin 11)	-0.221	0.421	0.409	inactive
38	LOC440455 (retired record)	0.488	-0.44	0.111	inactive
39	LOC441574 (retired record)	1.43	0.611	0.807	inactive
40	TP53I13 (tumor protein p53 inducible protein 13)	-1.04	-0.738	-1.67	inactive
41	C6orf58 (chromosome 6 open reading frame 58)	-1.64	-1.87	-1.51	inactive
42	HPSE (heparanase)	-0.0621	-0.748	-0.134	inactive
43	KCNH1 (potassium voltage-gated channel subfamily H member 1)	1.51	1.46	1.42	inactive
44	TMEM192 (transmembrane protein 192)	-0.52	-0.625	-0.908	inactive
45	THOP1 (thimet oligopeptidase 1)	-0.109	-0.301	0.11	inactive
46	CD4 (CD4 molecule)	-1.14	1.15	-0.675	inactive
47	BMP15 (bone morphogenetic protein 15)	-1.67	-0.832	-1.44	inactive
48	AKR1B1 (aldo-keto reductase family 1 member B)	-0.236	0.148	-0.559	inactive
49	LOC440462 (retired record)	0.57	0.151	0.0999	inactive
50	DENND5B (DENN domain containing 5B)	-0.462	-0.221	-1.13	inactive
51	LOC389358 (retired record)	0.598	1.33	0.828	inactive
52	SEMA3A (semaphorin 3A)	2.43	1.48	0.173	inactive
53	POLR2B (RNA polymerase II subunit B)	-1.09	-0.857	-0.974	inactive
54	LOC441429 (retired record)	0.189	0.513	0.903	inactive
55	CDC42EP5 (CDC42 effector protein 5)	1.01	1.25	0.79	inactive
56	CLCF1 (cardiotrophin like cytokine factor 1)	-0.063	-1.77	0.537	inactive
57	LOC440786	-3.13	-0.0587	0.162	inactive
58	ARHGEF35 (Rho guanine nucleotide exchange factor 35)	1.31	1.43	1.35	inactive
59	ZNF358 (zinc finger protein 358)	-1.1	-0.967	-1.32	inactive
60	MOCS3 (molybdenum cofactor synthesis 3)	-0.507	-0.209	-0.65	inactive
61	LRRC20 (leucine rich repeat containing 20)	0.279	0.65	0.767	inactive
62	LCN6 (lipocalin 6)	-0.395	-0.444	-0.312	inactive
63	DNAJA1 (DnaJ heat shock protein family (Hsp40) member A1)	0.66	0.511	0.633	inactive
64	HSF2BP (heat shock transcription factor 2 binding protein)	-1.29	-0.87	-0.281	inactive
65	SLC44A5	-0.379	-0.829	-0.477	inactive
66	CD83 (CD83 molecule)	-1.41	-1.31	-1.66	inactive
67	OLIG1 (oligodendrocyte transcription factor 1)	-0.302	-0.578	-0.823	inactive
68	IRF4 (interferon regulatory factor 4)	0.946	2.99	1.67	inactive

An excerpt taken from the entries so far:
no.	gene knocked down	robust z-score, replicate 1	robust z-score, replicate 2	robust z-score, replicate 3	outcome
47	BMP15 (bone morphogenetic protein 15)	-1.67	-0.832	-1.44	inactive
48	AKR1B1 (aldo-keto reductase family 1 member B)	-0.236	0.148	-0.559	inactive
49	LOC440462 (retired record)	0.57	0.151	0.0999	inactive
50	DENND5B (DENN domain containing 5B)	-0.462	-0.221	-1.13	inactive
51	LOC389358 (retired record)	0.598	1.33	0.828	inactive
52	SEMA3A (semaphorin 3A)	2.43	1.48	0.173	inactive
53	POLR2B (RNA polymerase II subunit B)	-1.09	-0.857	-0.974	inactive
54	LOC441429 (retired record)	0.189	0.513	0.903	inactive
55	CDC42EP5 (CDC42 effector protein 5)	1.01	1.25	0.79	inactive
